Measured data: PubChem BioAssay AID504784 (Drosophila RNAi Screening Center, 2011)
The screen tested about 17,000 reagents; shown is an unselected part of those with a known target gene and a result. 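Each column is one replicate's B-score; the combined score over replicates was not deposited, so single values may mislead.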 Reagents against one gene are numbered here. Names joined by + are all predicted targets of the reagent.

Aim: 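Search for regulators of lipid droplet storage in oleate-fed fly cells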 (primary screen)
System: Drosophila Kc167 embryonic cells
Reagent: long dsRNA against Drosophila genes, about 250 ng dsRNA per well
Timing: 4 days
Treatment: cells fed 400 µM oleic acid bound to BSA
Measured: 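Cells imaged and segmented; ratio of lipid droplet area to nuclear area, log-transformed, then normalised as a B-score over the screen; higher means more stored lipid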
Reading the numbers: droplet/nuclear area B-score: higher = more stored lipid (overstorage)

Gene	dsRNA no.	droplet/nuclear area B-score, replicate 1	droplet/nuclear area B-score, replicate 2	droplet/nuclear area B-score, replicate 3
BI-1 (Bax Inhibitor-1)	1	1.86	-0.575	
CG13365	1	-0.0186	-0.638	
Cyp6d4 (Cytochrome P450 6d4)	1	1.95	1.64	
CG4830	1	0.178	0.299	
Nox (NADPH oxidase)	1	1.41	3.85	
Nox (NADPH oxidase)	2	-0.537	1.02	
alph (alphabet)	1	-1.87	-0.674	
Mov10 (Mov10 RISC complex RNA helicase)	1	-0.164	-0.653	
Not3 (CCR4-NOT transcription complex subunit 3)	1	4.86	9.25	
CG34348	1	0.0176	-0.517	0.343
CG34348	2	-1.96	-2.08	-2.41
CG14115	1	3.24	5.37	
CG34427	1	-0.593	-0.536	
CR18275 + CG13373	1	-0.317	-0.154	
CG15721	1	0.295	-1.3	-0.193
Cdk5alpha (Cdk5 activator-like protein)	1	-1.09	0.243	
Cdk5alpha (Cdk5 activator-like protein)	2	1.79	0.806	
CG14304	1	2.85	2.73	
CG42307 + mus312	1	-1.27	-0.389	
Gmer (GDP-4-keto-6-deoxy-D-mannose 3,5-epimerase/4-reductase)	1	1.68	2.5	
pirk (poor Imd response upon knock-in)	1	0.875	0.537	
EMC3 (ER membrane protein complex subunit 3)	1	0.762	-0.811	
CG9541	1	0.199	-0.633	
CG33252	1	2.45	0.752	
CG13362	1	-0.264	0.158	
CG11309	1	1.27	-0.0118	-0.0872
CG32812	1	1.91	0.114	
CG6788 + CR32496	1	0.383	0.972	
CG11037	1	0.458	0.0543	
AdamTS-B (ADAM metallopeptidase with thrombospondin type 1 motif B)	1	0.488	-0.0795	
Arpc2 (Actin-related protein 2/3 complex, subunit 2)	1	0.268	0.692	
CG12519	1	-0.187	-0.881	
CG12519	2	-1.28	0.961	
Vha36-3 (Vacuolar H[+] ATPase 36kD subunit 3)	1	-0.0175	-0.246	
VGlut (Vesicular glutamate transporter)	1	-0.547	-0.509	-1.12
VGlut (Vesicular glutamate transporter)	2	0.492	-0.0252	
CG9775	1	3.37	-1.6	-1.82
CG9775	2	1.41	0.914	
CG12158	1	0.104	-0.561	
CG14693	1	-0.639	-1.13	
CG33981 + fab1	1	0.847	-0.28	
Sfxn2 (Sideroflexin 2)	1	3.95	1.55	
CG13643	1	2.44	1.58	
CG13643	2	-0.796	-0.0134	
PolE4 (DNA polymerase epsilon subunit 4)	1	1.43	0.52	
CG3604	1	-0.0242	-0.499	
CG15499 (retired record)	1	-2.03	-0.249	
lds (lodestar)	1	-1.75	-0.869	
vex (vexed)	1	-0.0716	-0.00885	-0.03
vex (vexed)	2	0.0786	-2.37	0.704
vex (vexed)	3	0.767	0.104	
Toll-6	1	1.47	4.3	
CG3529	1	0.51	-0.276	
CG11123	1	0.681	1.47	
Pino (Pinocchio)	1	-4.85	-5.02	
Pino (Pinocchio)	2	5.08	8.32	
CG2182	1	-0.112	4.16	
CG14915	1	-2.19	-1.22	
CG14397	1	1.55	0.0149	
Cbs (Cystathionine beta-synthase)	1	0.803	-0.161	
bam (bag of marbles)	1	-1.69	0.107	
CG17344	1	0.526	0.0438	
CG34242	1	1.05	-0.549	
Snp (Snipper)	1	-1.3	-0.7	
Snp (Snipper)	2	-0.683	-1.07	
dap (dacapo)	1	0.54	1.09	
Gip (GIP-like)	1	-0.693	0.0122	
CG10527	1	0.343	-0.899	
ndl (nudel)	1	-0.279	-0.825	
eIF3c (eukaryotic translation initiation factor 3 subunit c)	1	3.04	3.43	
CG17819	1	-1.04	-2.58	
CG8675	1	0.183	0.0994	
CG9447	1	-0.0225	0.383	
Lcp65APsi (pseudo)	1	0.437	1.91	
Lcp65APsi (pseudo)	2	-0.0785	-0.23	
Rbm13 (RNA-binding motif protein 13)	1	0.135	-2.47	
CG9813	1	-0.213	-0.544	
fipi (factor of interpulse interval)	1	0.149	-2.41	
Srlp (Spliceosome-ribosome linker protein)	1	2.02	5.77	
CG10073	1	0.0481	0.361	
Serinc (Serine incorporator)	1	0.0902	-1.46	-0.15
bs (blistered)	1	1.38	-1.67	0.937
bs (blistered)	2	-0.265	-1.02	

Reprinted from the entries so far, 13 entries:
Gene	dsRNA no.	droplet/nuclear area B-score, replicate 1	droplet/nuclear area B-score, replicate 2	droplet/nuclear area B-score, replicate 3
Toll-6	1	1.47	4.3	
CG3529	1	0.51	-0.276	
CG11123	1	0.681	1.47	
Pino (Pinocchio)	1	-4.85	-5.02	
Pino (Pinocchio)	2	5.08	8.32	
CG2182	1	-0.112	4.16	
CG14915	1	-2.19	-1.22	
CG14397	1	1.55	0.0149	
Cbs (Cystathionine beta-synthase)	1	0.803	-0.161	
bam (bag of marbles)	1	-1.69	0.107	
CG17344	1	0.526	0.0438	
CG34242	1	1.05	-0.549	
Snp (Snipper)	1	-1.3	-0.7	
